# Test results taken from the supplement of paper PMC8728848.
# This is one part of the list.
# Assays:
# Experiment in all cases: glycan array binding signal (z-score within array); higher = stronger binding
# Settings in all cases: glycan notation: IUPAC condensed, linker removed
# [1] = molecular target: Gal(b1-4)GlcNAc(b1-2)[Gal(b1-4)GlcNAc(b1-4)]Man(a1-3)[GlcNAc(b1-4)][Gal(b1-4)GlcNAc(b1-2)Man(a1-6)]Man(b1-4)GlcNAc(b1-4)GlcNAc
# Summary of the method: (§1)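 The binding signal is a Z-score computed within each array and averaged over linkers. Arrays of the same protein sequence at different concentrations or buffers were also averaged together. Data originate from 3228 arrays in the Consortium for Functional Glycomics database, kept only where the protein sequence was available.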
# [2] = molecular target: Gal(b1-4)GlcNAc(b1-2)[Gal(b1-4)GlcNAc(b1-4)]Man(a1-3)[GlcNAc(b1-4)][Gal(b1-4)GlcNAc(b1-2)[Gal(b1-4)GlcNAc(b1-6)]Man(a1-6)]Man(b1-4)GlcNAc(b1-4)GlcNAc
# Summary of the method: as §1
# [3] = molecular target: Gal(b1-4)GlcNAc(b1-2)[Gal(b1-4)GlcNAc(b1-4)]Man(a1-3)[GlcNAc(b1-4)][Gal(b1-4)GlcNAc(b1-2)[Gal(b1-4)GlcNAc(b1-6)]Man(a1-6)]Man(b1-4)GlcNAc(b1-4)[Fuc(a1-6)]GlcNAc
# Summary of the method: as §1
# [4] = molecular target: Gal(b1-4)GlcNAc(b1-2)[Gal(b1-4)GlcNAc(b1-6)]Man(a1-6)[Gal(b1-4)GlcNAc(b1-2)Man(a1-3)]Man(b1-4)GlcNAc(b1-4)GlcNAc
# Summary of the method: as §1
# [5] = molecular target: Gal(b1-4)GlcNAc(b1-2)[Gal(b1-4)GlcNAc(b1-6)]Man(a1-6)[Gal(b1-4)GlcNAc(b1-2)Man(a1-3)]Man(b1-4)GlcNAc(b1-4)[Fuc(a1-6)]GlcNAc
# Summary of the method: as §1
# [6] = molecular target: Gal(b1-4)GlcNAc(b1-2)[Gal(b1-4)GlcNAc(b1-6)]Man(a1-6)[GlcNAc(b1-4)][Gal(b1-4)GlcNAc(b1-2)Man(a1-3)]Man(b1-4)GlcNAc(b1-4)GlcNAc
# Summary of the method: as §1
# [7] = molecular target: Gal(b1-4)GlcNAc(b1-2)[Gal(b1-4)GlcNAc(b1-6)]Man(a1-6)[GlcNAc(b1-4)][Gal(b1-4)GlcNAc(b1-2)[Gal(b1-4)GlcNAc(b1-4)]Man(a1-3)]Man(b1-4)GlcNAc(b1-4)[Fuc(a1-6)]GlcNAc
# Summary of the method: as §1
# [8] = molecular target: Gal(b1-4)GlcNAc(b1-3)Gal(b1-3)GalNAc
# Summary of the method: as §1
# [9] = molecular target: Gal(b1-4)GlcNAc(b1-3)Gal(b1-3)GlcNAc
# Summary of the method: as §1
# [10] = molecular target: Gal(b1-4)GlcNAc(b1-3)Gal(b1-4)Glc
# Summary of the method: as §1
# [11] = molecular target: Gal(b1-4)GlcNAc(b1-3)Gal(b1-4)GlcNAc
# Summary of the method: as §1
# [12] = molecular target: Gal(b1-4)GlcNAc(b1-3)Gal(b1-4)GlcNAc(b1-2)Man(a1-3)[Gal(b1-4)GlcNAc(b1-3)Gal(b1-4)GlcNAc(b1-2)Man(a1-6)]Man(b1-4)GlcNAc(b1-4)GlcNAc
# Summary of the method: as §1
# [13] = molecular target: Gal(b1-4)GlcNAc(b1-3)Gal(b1-4)GlcNAc(b1-2)Man(a1-3)[Gal(b1-4)GlcNAc(b1-3)Gal(b1-4)GlcNAc(b1-2)Man(a1-6)]Man(b1-4)GlcNAc(b1-4)[Fuc(a1-6)]GlcNAc
# Summary of the method: as §1
# [14] = molecular target: Gal(b1-4)GlcNAc(b1-3)Gal(b1-4)GlcNAc(b1-2)[Gal(b1-4)GlcNAc(b1-3)Gal(b1-4)GlcNAc(b1-6)]Man(a1-6)[Gal(b1-4)GlcNAc(b1-3)Gal(b1-4)GlcNAc(b1-2)Man(a1-3)]Man(b1-4)GlcNAc(b1-4)GlcNAc
# Summary of the method: as §1
# [15] = molecular target: Gal(b1-4)GlcNAc(b1-3)Gal(b1-4)GlcNAc(b1-2)[Gal(b1-4)GlcNAc(b1-3)Gal(b1-4)GlcNAc(b1-6)]Man(a1-6)[Gal(b1-4)GlcNAc(b1-3)Gal(b1-4)GlcNAc(b1-2)Man(a1-3)]Man(b1-4)GlcNAc(b1-4)[Fuc(a1-6)]GlcNAc
# Summary of the method: as §1
# [16] = molecular target: Gal(b1-4)GlcNAc(b1-3)Gal(b1-4)GlcNAc(b1-3)Gal(b1-4)GlcNAc
# Summary of the method: as §1
# [17] = molecular target: Gal(b1-4)GlcNAc(b1-3)Gal(b1-4)GlcNAc(b1-3)Gal(b1-4)GlcNAc(b1-2)Man(a1-3)[Gal(b1-4)GlcNAc(b1-3)Gal(b1-4)GlcNAc(b1-3)Gal(b1-4)GlcNAc(b1-2)Man(a1-6)]Man(b1-4)GlcNAc(b1-4)GlcNAc
# Summary of the method: as §1
# [18] = molecular target: Gal(b1-4)GlcNAc(b1-3)Gal(b1-4)GlcNAc(b1-3)Gal(b1-4)GlcNAc(b1-2)Man(a1-3)[Gal(b1-4)GlcNAc(b1-3)Gal(b1-4)GlcNAc(b1-3)Gal(b1-4)GlcNAc(b1-2)Man(a1-6)]Man(b1-4)GlcNAc(b1-4)[Fuc(a1-6)]GlcNAc
# Summary of the method: as §1
# [19] = molecular target: Gal(b1-4)GlcNAc(b1-3)Gal(b1-4)GlcNAc(b1-3)Gal(b1-4)GlcNAc(b1-2)[Gal(b1-4)GlcNAc(b1-3)Gal(b1-4)GlcNAc(b1-3)Gal(b1-4)GlcNAc(b1-6)]Man(a1-6)[Gal(b1-4)GlcNAc(b1-3)Gal(b1-4)GlcNAc(b1-3)Gal(b1-4)GlcNAc(b1-2)Man(a1-3)]Man(b1-4)GlcNAc(b1-4)[Fuc(a1-6)]GlcNAc
# Summary of the method: as §1
binder,measurement,setting,value
"LlpA1 (Pseudomonas fluorescens), Q4KHC3 (protein) MGSSHHHHHHSSGLVPRGSHMAWIRYDFTDNGSSVLPARYYMAPNQYLQSPNKRFKLLFQADGNLALYDGAQLAWVADQNTPFTNVSKGNKKDPMMVFMNYGFVLDDPLRGRIWSTTPSDPTMGSREDASLRAFTQVQDDGNIVTVDTIPHWYAPNGRVFTPAVGAAMIIGGTTELVPGQFYSAGEHSLVFQGDGNLVVYGPNSSVIWATYTQNKGGVRCVMQEDGNLVIYAANNGVVWQSGTGGHPGATIRLQANGSFTIVTERPVWARFGYTPTIKPPRVFYPDHKWKTGSYTWNNVF",glycan array binding signal (z-score),[1],-0.265
same,glycan array binding signal (z-score),[2],0.115
same,glycan array binding signal (z-score),[3],2.29
same,glycan array binding signal (z-score),[4],0.085
same,glycan array binding signal (z-score),[5],0.344
same,glycan array binding signal (z-score),[6],0.086
same,glycan array binding signal (z-score),[7],0.161
same,glycan array binding signal (z-score),[8],-0.388
same,glycan array binding signal (z-score),[9],-0.133
same,glycan array binding signal (z-score),[10],-0.212
same,glycan array binding signal (z-score),[11],-0.078
same,glycan array binding signal (z-score),[12],1.13
same,glycan array binding signal (z-score),[13],0.974
same,glycan array binding signal (z-score),[14],2.3
same,glycan array binding signal (z-score),[15],1.19
same,glycan array binding signal (z-score),[16],-0.364
same,glycan array binding signal (z-score),[17],1.63
same,glycan array binding signal (z-score),[18],2.23
same,glycan array binding signal (z-score),[19],1.04

# Random excerpt: 2 entries already listed, in no set order.
binder,measurement,setting,value
"LlpA1 (Pseudomonas fluorescens), Q4KHC3 (protein) MGSSHHHHHHSSGLVPRGSHMAWIRYDFTDNGSSVLPARYYMAPNQYLQSPNKRFKLLFQADGNLALYDGAQLAWVADQNTPFTNVSKGNKKDPMMVFMNYGFVLDDPLRGRIWSTTPSDPTMGSREDASLRAFTQVQDDGNIVTVDTIPHWYAPNGRVFTPAVGAAMIIGGTTELVPGQFYSAGEHSLVFQGDGNLVVYGPNSSVIWATYTQNKGGVRCVMQEDGNLVIYAANNGVVWQSGTGGHPGATIRLQANGSFTIVTERPVWARFGYTPTIKPPRVFYPDHKWKTGSYTWNNVF",glycan array binding signal (z-score),[7],0.161
same,glycan array binding signal (z-score),[16],-0.364
